Here are results for one molecule from publication PMC3973600.

Results are given in words; binding and its absence hold for the method and conditions named. Some results given as binding are weak or reduced against the parent protein; the word gives no strength.

The target of the test is T1, M. huakuii 7653R BacA protein (Mesorhizobium huakuii 7653R) (UniProt C0J8B6).
T1 sequence: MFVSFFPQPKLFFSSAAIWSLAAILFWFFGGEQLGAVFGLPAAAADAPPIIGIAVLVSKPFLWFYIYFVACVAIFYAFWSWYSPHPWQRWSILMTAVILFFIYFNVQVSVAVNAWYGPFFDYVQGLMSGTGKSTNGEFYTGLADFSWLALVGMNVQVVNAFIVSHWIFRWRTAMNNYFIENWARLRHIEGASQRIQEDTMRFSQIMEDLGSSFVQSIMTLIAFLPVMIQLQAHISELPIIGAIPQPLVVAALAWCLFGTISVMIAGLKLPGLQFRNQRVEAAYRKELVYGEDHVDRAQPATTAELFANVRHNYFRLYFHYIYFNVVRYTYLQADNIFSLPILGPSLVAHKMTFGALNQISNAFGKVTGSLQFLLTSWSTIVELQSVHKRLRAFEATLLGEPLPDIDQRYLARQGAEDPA
Briefly: two-hybrid; bacterial two-hybrid system; 'in a parallel study', data not shown; no further details.

B1: M. huakuii 7653R TypA protein (protein, UniProt A0ABZ0VYW2 1-609)
chain: MKLRNIAIIAHVDHGKTTLVDQLLKQSGSFRDNQRVAERAMDSNDLEKERGITILAKATSVDWKDTRINIVDTPGHADFGGEVERILSMVDSAIVLVDAAEGPMPQTKFVVGKALKVGLKPIVVINKIDRPDARHVEVVNEVFDLFAALDATDEQLDFPILYGSGRDGWVSENPEGPKDQQLAPLFDLVIKHVPAPTVHPGPFRMIGTILEANPFLGRIITGRIESGTLKANQAVKVLHHDGTQIETGRISKILAFRGLERQPIEEAQAGDIVAIAGLSKGTVADTFCDLAVTEALHAQPIDPPTVTMSFLVNDSPLAGTEGDKVTSRVIRDRLLREAEGNVALKIEESPDKDSFFVSGRGELQLAVLIETMRREGFEIAVSRPRVVMQKGENGELLEPVEEVVIDVDEEHAGVVVQKMSERKAEMVELRPSGGNRQRIVFHAPTRGLIGYQSELLTDTRGTAVMNRLFHAYEPYKGELPGRTNGVLISNEQGESVAYAMWNLEDRGPMVIDPGVKVYQGMIIGIHSRDNDLEVNVLKGKKLTNIRAAGKDEAVKLTPPIRMTLERALAWIQDDELVEVTPKTIRLRKLYLDPNERKRFEKSSKAVGAA
On to B1, for which the binding result is listed as “binds”.
